Measured values as given in patent publication USRE49294.
Tags and fusion partners may be left off the protein sequences shown.

Target: T1, Cre recombinase (bacteriophage P1) (UniProt P06956)
T1 sequence (looked up, limits assumed): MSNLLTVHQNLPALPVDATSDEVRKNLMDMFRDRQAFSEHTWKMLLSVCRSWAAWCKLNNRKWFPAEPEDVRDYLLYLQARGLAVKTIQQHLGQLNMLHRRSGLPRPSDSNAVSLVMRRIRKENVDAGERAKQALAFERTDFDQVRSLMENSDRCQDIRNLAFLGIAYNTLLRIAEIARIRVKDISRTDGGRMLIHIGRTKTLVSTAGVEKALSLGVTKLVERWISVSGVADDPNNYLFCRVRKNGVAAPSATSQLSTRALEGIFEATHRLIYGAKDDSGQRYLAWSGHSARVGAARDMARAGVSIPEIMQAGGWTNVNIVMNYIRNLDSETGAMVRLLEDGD
Test: activity in cells
Details: pNN9 with two SS converted to mini ccc at 42 C, none at 30 C; protein in cells; only the site is given

## TAACTTCGTATAGCATACATTATACGAAGTTAT (double strand) [loxP site within Super Sequence]
  activity on this sequence: active
